Earlier results in patent publication US9624256B2, “Coordination complexes, pharmaceutical solutions comprising coordination complexes, and methods of treating patients” (SYNTHONICS, INC., priority 2004, dated 2017).

Conditions: complex with magnesium; cited from earlier work

Point of comparison: Nc1ncnc2nc[nH]c12 [adenine], “log Keq” value 2.08. Against it:
- Oc1ncnc2nc[nH]c12 [6-hydroxypurine] — higher, 6.65
- NCC(=O)O [glycine] — lower, 1.34
- Nc1ncnc2c1ncn2[C@@H]1O[C@H](COP(=O)(O)O)[C@@H](O)[C@H]1O [adenosine-5′-monophosphoric acid] — lower, 1.80

Conditions: complex with zinc; cited from earlier work

Point of comparison: hydroxypropanoic acid, “log Keq” value 0.86. Against it:
- mercaptopropanoic acid — higher, 6.43
